Source: PubChem BioAssay AID1347076 (National Center for Advancing Translational Sciences (NCATS), 2019)
Out of some 400,000 compounds screened, about 13,000 (3.2%) were called active. Inconclusive results, whose numbers are uncertain, are shown with a selection of clear calls. Calls come from the whole dose curve; as a rule, active = well fitted cell-killing curve with a large enough effect; inconclusive = small, poorly fitted or top-dose-only effect, or effect the other way; inactive = flat fitted curve, though single readings scatter. Potencies of inconclusive entries are doubtful fits and often do not repeat.

test: qHTS assay for MDR1-selective chemotherapeutics: Primary screen using the drug-selected MDR subline cells KB-V1; conditions: KB-V1 MDR cells viability, CellTiter-Glo, 72 h; series mostly up to 46.1 µM; note: nearly all actives have a fitted effect of over 60% in size
Method in brief: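 Cytotoxicity via CellTiter-Glo luminescence after 72 h compound exposure at 37 degrees C. Cells: drug-selected KB-V1 line, DMEM phenol-red free plus 10% FBS. Compounds tested at multiple concentrations; normalized data fitted to concentration-effect curves.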
Potency is the fitted concentration of half-maximal effect.

Compound	Potency
O=C(Nc1ccccc1N1CCCC1)C1CCN(C(=O)c2ccc(Cl)cc2)CC1	inconclusive: 2.31 µM [cytotoxic, full curve]
COC(=O)c1ccccc1OCC(=O)NC1CCCCC1	inconclusive: 23.1 µM [cytotoxic, single point]
CCOc1cc(NC(=S)NCc2ccco2)c(OCC)cc1NC(=O)C1CC1	inconclusive: 2.91 µM [cytotoxic, partial curve, poor fit]
ClC(Cl)(c1nnnn1-c1ccccc1)c1nnnn1-c1ccccc1	inactive
Cc1cccc(-n2nnnc2S(C)(=O)=O)c1	inconclusive: 29.1 µM [cytotoxic, single point]
CN(C)S(=O)(=O)n1cnc([C@@H]2[C@H]3C(=O)OC[C@@H]3C[C@@]23N=CN(Cc2ccccc2)C3=O)c1	inconclusive: 0.231 µM [rising, full curve, poor fit]
N=c1oc2ccc(Br)cc2cc1C(=O)NCc1ccc(F)cc1	inconclusive: 20.6 µM [rising, single point]
Cc1cc(=O)oc2cc(NC(=O)C(C)Oc3cccc(Cl)c3)ccc12 (stereo not given)	inactive
O=C(Nc1sc2c(c1C(=O)NCCCO)CCCC2)c1ccccc1	inconclusive: 1.46 µM [cytotoxic, full curve]
C(=N\Nc1nc2ccccc2[nH]1)/c1ccccc1	inconclusive: 29.1 µM [cytotoxic, single point]
O=C(NCCCn1ccnc1)c1cc(-c2cccs2)on1	active: 14.6 µM
Nc1ccccc1N=c1ssnc1Cl	inactive
CCN(CC(=O)Nc1ccc2c(c1)OCCO2)c1nc(-c2cccnc2)nc2ccccc12	inconclusive: 23.1 µM [cytotoxic, partial curve, poor fit]
CCOC(=O)/C(=N\Nc1ccccc1)S(=O)(=O)c1ccccc1	inactive
O=C1c2ccccc2C(=O)c2c1ncn2-c1ccccc1	active: 20.6 µM
COc1c(C)cc(Br)cc1C(=O)O	inconclusive: 0.411 µM [rising, full curve, poor fit]
CC(C)NC(=O)CN(C)S(=O)(=O)c1ccc(F)cc1	inconclusive: 6.51 µM [rising, partial curve, poor fit]
CCc1noc(C)c1C(=O)Nc1cccc(S(=O)(=O)N(C)c2ccccc2)c1	inconclusive: 10.3 µM [cytotoxic, partial curve, poor fit]
COc1ccc(NC(=O)c2ccc(COCC(F)(F)F)cc2)cc1OC	active: 20.6 µM
Cc1cc(C)c(C)c(S(=O)(=O)N2CCC(C(=O)Nc3ccc(S(=O)(=O)N4CCOCC4)cc3)CC2)c1C	inconclusive: 20.6 µM [cytotoxic, partial curve]
COc1ccc2nc(NC(=O)CSCc3c(C)noc3C)sc2c1	inconclusive: 9.2 µM [cytotoxic, partial curve]
Cc1nc(-c2coc3cc(O)c(C)cc3c2=O)cs1	inconclusive: 20.6 µM [cytotoxic, single point]
O=C(OCc1cc(=O)n2nc(-c3cccs3)sc2n1)c1ccc(F)cc1	inactive

Compound	Potency
NC(c1csc(Nc2cc(NCCCO)ncn2)n1)c1ccccc1Cl (stereo not given)	inactive
CCCOc1ccccc1N1C(=O)CC(N(O)c2ccccc2)C1=O (stereo not given)	inconclusive: 20.6 µM [cytotoxic, single point]
O=C(Nc1nc(-c2ccccn2)cs1)c1cc(Cl)ccc1[N+](=O)[O-]	inconclusive: 4.11 µM [cytotoxic, partial curve]
Cc1ccc(N2C(=O)CS(=O)C(c3ccccc3)C2=O)cc1C (stereo not given)	inactive
Cc1ccc(O)c(/C=N/NC(=O)Cc2ccc(Cl)cc2)c1	inactive
COc1ccccc1N(C)S(=O)(=O)c1ccc(Cl)c(C(=O)NC2=NCCS2)c1	inconclusive: 11.6 µM [cytotoxic, partial curve, poor fit]
Cn1nc(C(F)(F)F)c(-c2cccc(C(F)(F)F)c2)c1NC(=O)Nc1ccc(F)cc1	inconclusive: 18.4 µM [cytotoxic, single point]
CC12c3ccccc3C(c3ccccc31)C1C(=O)N(c3cccnc3)C(=O)C12 (stereo not given)	active: 14.6 µM
COc1ccc(-n2cnc3cc(NS(=O)(=O)c4ccccc4)ccc32)cc1	inconclusive: 29.1 µM [cytotoxic, single point]
COc1ccc(Nc2ncc3c(n2)CCN(Cc2ccc(Br)s2)C3)c(OC)c1	inactive
COc1cc([C@@H]2c3cc4c(cc3[C@@H](O[C@@H]3O[C@@H]5CO[C@@H](C)O[C@H]5[C@H](O)[C@H]3O)[C@H]3COC(=O)[C@H]23)OCO4)cc(OC)c1O	inactive
CCOc1ccc(CCNC(=O)CSc2nnnn2C)cc1OCC	inactive
CC(=O)Nc1ccc(S(=O)(=O)N2CCC(C(=O)NC3CCCC3)CC2)cc1	inconclusive: 29.1 µM [rising, single point]
COc1ccc2c(c1)c(C(=O)N/N=C/c1cn(C)c3ccccc13)c(C)n2C	inactive
CCCCc1nc2cc(C(=O)N3CCCCC3CCO)ccc2o1 (stereo not given)	inconclusive: 23.1 µM [cytotoxic, partial curve, poor fit]
CC(Sc1n[nH]c(N)n1)C(=O)Nc1ccc(Cl)cn1 (stereo not given)	inconclusive: 8.2 µM [rising, partial curve, poor fit]
COc1ccc2oc(=O)c(C(=O)N3CCN(c4ccc(F)cc4)CC3)cc2c1	inconclusive: 20.6 µM [cytotoxic, partial curve]
c1ccc(CSc2ccc(-c3ccccn3)nn2)nc1	inconclusive: 10.3 µM [cytotoxic, partial curve]
COC(=O)CNC(=O)CSc1nc2c(sc(=S)n2-c2ccccc2)c(=O)[nH]1	inactive
O=C1CCCC2=C1[C@@]1(CCC(c3ccccc3)C1)N=C(Nc1nc3ccccc3o1)N2 (stereo not given in full)	inconclusive: 20.6 µM [cytotoxic, single point]
CCC(=O)Nc1cc2c(cc1C(=O)CC)OCCO2	active: 20.6 µM
CCCNC(=O)N(C)C[C@@H]1Oc2cc(C#CC(C)(C)O)ccc2S(=O)(=O)N([C@H](C)CO)C[C@H]1C	inactive

Filtered by structure: the entries above with fluorine.
Compound	Potency
N=c1oc2ccc(Br)cc2cc1C(=O)NCc1ccc(F)cc1	inconclusive: 20.6 µM [rising, single point]
CC(C)NC(=O)CN(C)S(=O)(=O)c1ccc(F)cc1	inconclusive: 6.51 µM [rising, partial curve, poor fit]
COc1ccc(NC(=O)c2ccc(COCC(F)(F)F)cc2)cc1OC	active: 20.6 µM
O=C(OCc1cc(=O)n2nc(-c3cccs3)sc2n1)c1ccc(F)cc1	inactive
Cn1nc(C(F)(F)F)c(-c2cccc(C(F)(F)F)c2)c1NC(=O)Nc1ccc(F)cc1	inconclusive: 18.4 µM [cytotoxic, single point]
COc1ccc2oc(=O)c(C(=O)N3CCN(c4ccc(F)cc4)CC3)cc2c1	inconclusive: 20.6 µM [cytotoxic, partial curve]
